15 targets from the supplement of paper PMC11006884 can be followed below.

By UniProt entry, the sequences of proteins in these tests, tags left out. Where a name states a change or a piece, a line headed by the entry shows the natural chain unless it says otherwise.
UniProt O14734: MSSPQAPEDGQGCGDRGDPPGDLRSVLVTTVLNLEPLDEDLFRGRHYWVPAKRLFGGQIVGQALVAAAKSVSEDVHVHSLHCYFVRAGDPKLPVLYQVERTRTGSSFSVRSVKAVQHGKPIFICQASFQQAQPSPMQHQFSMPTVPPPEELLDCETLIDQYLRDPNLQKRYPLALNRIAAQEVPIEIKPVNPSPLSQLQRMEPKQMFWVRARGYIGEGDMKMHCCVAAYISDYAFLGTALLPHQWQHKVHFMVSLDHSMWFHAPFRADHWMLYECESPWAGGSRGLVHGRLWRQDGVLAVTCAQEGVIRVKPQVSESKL
UniProt O00233: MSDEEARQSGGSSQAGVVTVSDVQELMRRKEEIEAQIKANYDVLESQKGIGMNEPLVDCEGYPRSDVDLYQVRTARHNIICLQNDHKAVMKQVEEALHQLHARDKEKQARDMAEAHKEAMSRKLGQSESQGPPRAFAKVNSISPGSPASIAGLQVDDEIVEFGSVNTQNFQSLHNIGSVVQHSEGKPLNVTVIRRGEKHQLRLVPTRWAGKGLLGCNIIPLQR
UniProt O14964, whole entry, looked up: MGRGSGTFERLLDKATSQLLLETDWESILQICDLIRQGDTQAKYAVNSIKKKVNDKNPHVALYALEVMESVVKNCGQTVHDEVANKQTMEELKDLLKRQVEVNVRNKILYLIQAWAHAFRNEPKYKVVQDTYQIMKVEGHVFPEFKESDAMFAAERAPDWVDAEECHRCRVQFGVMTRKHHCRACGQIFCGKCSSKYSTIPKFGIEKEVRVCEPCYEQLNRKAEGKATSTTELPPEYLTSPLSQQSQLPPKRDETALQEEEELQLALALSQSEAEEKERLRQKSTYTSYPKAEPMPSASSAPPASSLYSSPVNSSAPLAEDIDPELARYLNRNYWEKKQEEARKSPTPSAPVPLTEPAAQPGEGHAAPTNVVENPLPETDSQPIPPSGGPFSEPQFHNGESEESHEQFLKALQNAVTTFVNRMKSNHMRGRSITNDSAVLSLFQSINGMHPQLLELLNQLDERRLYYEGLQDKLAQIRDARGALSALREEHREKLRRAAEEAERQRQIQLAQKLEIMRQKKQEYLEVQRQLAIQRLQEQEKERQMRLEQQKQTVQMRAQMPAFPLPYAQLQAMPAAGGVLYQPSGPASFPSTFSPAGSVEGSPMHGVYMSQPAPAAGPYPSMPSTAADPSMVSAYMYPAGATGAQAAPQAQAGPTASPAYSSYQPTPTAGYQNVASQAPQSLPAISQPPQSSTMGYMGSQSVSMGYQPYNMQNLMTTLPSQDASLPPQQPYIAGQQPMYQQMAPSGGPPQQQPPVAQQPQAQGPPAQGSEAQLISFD
UniProt O14936: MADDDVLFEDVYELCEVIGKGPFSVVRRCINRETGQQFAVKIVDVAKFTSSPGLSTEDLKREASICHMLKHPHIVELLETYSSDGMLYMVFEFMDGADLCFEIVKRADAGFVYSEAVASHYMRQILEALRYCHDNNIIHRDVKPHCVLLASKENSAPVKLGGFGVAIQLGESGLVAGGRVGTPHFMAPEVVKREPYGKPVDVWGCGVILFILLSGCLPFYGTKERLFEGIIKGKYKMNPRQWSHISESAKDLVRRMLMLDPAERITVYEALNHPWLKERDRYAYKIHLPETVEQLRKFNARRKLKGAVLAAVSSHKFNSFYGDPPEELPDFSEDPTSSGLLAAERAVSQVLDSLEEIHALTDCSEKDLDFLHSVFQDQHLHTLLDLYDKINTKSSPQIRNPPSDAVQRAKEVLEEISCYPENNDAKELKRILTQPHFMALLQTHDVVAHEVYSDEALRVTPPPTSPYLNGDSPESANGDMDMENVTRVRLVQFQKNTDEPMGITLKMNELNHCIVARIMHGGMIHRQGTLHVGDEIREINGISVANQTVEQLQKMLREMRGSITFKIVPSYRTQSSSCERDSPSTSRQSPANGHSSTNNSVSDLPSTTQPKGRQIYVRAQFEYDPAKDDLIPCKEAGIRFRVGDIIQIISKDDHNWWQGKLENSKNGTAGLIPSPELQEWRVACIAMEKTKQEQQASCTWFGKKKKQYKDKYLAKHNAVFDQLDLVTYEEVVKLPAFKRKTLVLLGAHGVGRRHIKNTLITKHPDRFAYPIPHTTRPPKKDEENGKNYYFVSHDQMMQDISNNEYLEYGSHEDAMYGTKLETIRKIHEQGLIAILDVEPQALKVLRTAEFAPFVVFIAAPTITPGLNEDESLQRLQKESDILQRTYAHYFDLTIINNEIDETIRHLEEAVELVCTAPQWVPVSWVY
UniProt O00471: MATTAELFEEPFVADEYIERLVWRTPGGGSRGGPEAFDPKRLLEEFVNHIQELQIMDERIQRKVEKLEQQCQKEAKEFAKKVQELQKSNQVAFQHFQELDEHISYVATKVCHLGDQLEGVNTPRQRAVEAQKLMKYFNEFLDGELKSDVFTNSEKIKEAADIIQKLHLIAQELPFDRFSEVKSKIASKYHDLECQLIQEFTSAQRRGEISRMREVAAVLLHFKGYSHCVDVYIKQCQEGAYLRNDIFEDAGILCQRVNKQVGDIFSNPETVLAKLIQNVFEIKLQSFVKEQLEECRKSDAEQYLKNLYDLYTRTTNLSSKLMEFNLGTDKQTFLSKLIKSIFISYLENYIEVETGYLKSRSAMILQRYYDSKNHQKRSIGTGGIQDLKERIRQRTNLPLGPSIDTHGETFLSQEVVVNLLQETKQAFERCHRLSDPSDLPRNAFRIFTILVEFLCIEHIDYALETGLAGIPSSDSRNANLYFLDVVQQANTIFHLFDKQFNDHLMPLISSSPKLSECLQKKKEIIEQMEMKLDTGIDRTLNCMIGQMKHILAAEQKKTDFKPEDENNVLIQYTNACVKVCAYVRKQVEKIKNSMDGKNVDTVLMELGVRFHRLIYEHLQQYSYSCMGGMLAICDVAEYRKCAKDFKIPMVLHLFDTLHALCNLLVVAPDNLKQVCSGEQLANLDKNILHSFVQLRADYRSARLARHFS
UniProt O14654: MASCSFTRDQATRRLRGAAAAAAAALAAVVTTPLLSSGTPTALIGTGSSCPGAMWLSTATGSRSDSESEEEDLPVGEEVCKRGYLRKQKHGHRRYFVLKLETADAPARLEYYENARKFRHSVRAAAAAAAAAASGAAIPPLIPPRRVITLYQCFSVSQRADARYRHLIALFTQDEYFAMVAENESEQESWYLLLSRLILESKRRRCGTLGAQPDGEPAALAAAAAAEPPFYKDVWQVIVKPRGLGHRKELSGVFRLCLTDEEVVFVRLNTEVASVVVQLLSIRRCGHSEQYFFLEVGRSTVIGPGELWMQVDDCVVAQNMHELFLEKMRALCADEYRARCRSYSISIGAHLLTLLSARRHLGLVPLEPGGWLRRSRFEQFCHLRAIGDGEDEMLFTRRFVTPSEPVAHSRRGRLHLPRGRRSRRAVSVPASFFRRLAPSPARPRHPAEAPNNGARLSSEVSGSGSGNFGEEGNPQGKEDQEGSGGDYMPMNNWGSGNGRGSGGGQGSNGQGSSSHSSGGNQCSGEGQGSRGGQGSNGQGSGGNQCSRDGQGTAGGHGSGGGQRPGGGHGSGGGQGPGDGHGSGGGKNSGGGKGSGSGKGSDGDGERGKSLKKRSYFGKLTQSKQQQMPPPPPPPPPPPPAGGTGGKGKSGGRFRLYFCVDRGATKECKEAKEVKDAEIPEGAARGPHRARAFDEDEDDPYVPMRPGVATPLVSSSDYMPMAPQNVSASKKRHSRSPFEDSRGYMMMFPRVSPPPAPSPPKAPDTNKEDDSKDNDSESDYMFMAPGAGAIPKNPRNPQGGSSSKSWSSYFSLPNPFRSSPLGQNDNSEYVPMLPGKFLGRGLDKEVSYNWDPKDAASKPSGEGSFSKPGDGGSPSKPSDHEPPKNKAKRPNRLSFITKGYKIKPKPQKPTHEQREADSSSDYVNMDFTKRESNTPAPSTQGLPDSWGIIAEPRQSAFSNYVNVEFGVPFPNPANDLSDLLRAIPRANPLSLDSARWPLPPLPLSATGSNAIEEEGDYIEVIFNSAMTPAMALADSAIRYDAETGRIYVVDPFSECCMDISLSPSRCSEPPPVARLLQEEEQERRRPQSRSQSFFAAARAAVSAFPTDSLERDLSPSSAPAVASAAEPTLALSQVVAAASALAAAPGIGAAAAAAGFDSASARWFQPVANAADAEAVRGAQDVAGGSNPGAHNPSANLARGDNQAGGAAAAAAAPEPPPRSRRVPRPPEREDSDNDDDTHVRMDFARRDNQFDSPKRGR
UniProt O15042: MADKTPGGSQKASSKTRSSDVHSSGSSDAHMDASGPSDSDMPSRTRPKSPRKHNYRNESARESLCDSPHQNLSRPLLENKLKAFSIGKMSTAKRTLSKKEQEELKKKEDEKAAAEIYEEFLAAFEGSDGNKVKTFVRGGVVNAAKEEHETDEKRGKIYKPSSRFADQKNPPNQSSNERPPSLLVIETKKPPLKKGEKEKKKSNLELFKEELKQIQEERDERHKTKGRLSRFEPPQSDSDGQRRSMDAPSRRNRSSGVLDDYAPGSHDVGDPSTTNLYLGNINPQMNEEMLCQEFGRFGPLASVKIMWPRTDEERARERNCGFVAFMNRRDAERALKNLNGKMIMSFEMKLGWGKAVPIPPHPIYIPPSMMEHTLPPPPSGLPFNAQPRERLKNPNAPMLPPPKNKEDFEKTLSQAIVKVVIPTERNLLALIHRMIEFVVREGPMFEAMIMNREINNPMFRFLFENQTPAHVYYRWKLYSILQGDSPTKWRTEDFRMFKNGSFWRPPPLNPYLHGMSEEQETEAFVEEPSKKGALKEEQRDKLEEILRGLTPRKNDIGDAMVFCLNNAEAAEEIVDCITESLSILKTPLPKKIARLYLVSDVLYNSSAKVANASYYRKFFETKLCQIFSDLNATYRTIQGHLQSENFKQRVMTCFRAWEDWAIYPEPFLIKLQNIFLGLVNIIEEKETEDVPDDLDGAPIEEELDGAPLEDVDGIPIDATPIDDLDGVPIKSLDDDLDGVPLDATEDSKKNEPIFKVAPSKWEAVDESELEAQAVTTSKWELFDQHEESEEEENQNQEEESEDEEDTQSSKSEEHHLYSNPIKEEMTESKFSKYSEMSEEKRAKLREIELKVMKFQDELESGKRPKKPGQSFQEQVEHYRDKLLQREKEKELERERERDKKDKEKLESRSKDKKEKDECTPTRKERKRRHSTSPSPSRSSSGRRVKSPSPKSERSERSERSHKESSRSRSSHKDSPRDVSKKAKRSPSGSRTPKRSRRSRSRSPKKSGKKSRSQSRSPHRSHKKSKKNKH
UniProt O14965: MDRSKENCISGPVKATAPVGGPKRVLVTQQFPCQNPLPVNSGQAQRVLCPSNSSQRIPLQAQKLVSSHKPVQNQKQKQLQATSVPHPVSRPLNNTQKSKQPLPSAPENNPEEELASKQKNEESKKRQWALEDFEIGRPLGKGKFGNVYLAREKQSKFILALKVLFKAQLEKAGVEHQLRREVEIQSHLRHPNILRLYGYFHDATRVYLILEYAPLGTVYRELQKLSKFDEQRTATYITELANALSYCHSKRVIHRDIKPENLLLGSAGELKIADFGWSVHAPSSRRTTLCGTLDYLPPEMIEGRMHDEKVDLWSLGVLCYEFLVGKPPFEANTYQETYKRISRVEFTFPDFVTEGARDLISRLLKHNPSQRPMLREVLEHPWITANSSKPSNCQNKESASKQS
UniProt O00429, whole entry, looked up: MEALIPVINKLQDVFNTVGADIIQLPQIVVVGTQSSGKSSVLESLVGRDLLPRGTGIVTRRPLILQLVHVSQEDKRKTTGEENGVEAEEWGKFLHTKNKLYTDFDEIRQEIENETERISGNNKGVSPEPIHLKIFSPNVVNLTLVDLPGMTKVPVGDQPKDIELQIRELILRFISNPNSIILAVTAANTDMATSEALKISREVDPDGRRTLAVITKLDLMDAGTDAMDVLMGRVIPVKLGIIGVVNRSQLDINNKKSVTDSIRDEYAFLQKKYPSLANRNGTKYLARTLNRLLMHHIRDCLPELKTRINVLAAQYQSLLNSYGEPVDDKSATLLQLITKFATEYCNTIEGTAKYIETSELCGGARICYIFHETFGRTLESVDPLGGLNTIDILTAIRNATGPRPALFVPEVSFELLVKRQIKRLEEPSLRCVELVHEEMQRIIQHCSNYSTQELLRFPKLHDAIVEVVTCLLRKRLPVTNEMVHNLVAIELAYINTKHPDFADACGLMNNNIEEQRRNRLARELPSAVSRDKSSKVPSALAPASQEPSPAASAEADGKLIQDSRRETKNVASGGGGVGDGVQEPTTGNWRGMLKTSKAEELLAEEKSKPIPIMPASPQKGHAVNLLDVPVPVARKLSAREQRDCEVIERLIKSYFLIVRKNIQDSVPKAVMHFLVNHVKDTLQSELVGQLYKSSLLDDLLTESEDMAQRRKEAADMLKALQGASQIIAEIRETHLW

The list shows a part of the results, in another mix than the full data. This is a noisy data set.

Compound in this experiment: COC(=O)/C=C/c1ccccc1 [methyl cinnamate]
Kind of experiment: log2 ratio of iodoacetamide-alkyne labeling of the cysteine site, DMSO over compound (competition); higher = stronger covalent engagement of the cysteine by the compound, active = 1 or more. Particulars: 500 µM; treatment time 1 h; system: HEK293T cell lysate. The method, boiled down: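 After 1 h at ambient temperature with vehicle or electrophile (500 µM), HEK293T lysate (2 mg/mL) was labelled for 1 h with iodoacetamide alkyne and clicked to sCIP-TMT reagents. Pooled samples were trypsin-digested overnight at 37 °C, streptavidin-enriched, acid-eluted and analysed by Orbitrap Eclipse LC-MS/MS with FAIMS, then quantified in FragPipe over three replicates with duplicate channels. A cysteine's log2 competition ratio is its mean control-channel over mean compound-channel reporter intensity. Cysteines quantified in only one replicate were not included.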
In the case of ACOT8 C13 (UniProt O14734), the “log2 ratio of iodoacetamide-alkyne labeling” value (from here on “log2 ratio”) is inactive: 0.343. As to PSMD9 C59 (UniProt O00233), the “log2 ratio” value is inactive: 0.152. As for HGS C215 (UniProt O14964), the figure is inactive: 0.0123; as for CASK C633 (UniProt O14936), inactive: 0.248.

For the target ARPC2 C120 (UniProt O15144), the “log2 ratio” value is inactive: 0.0417. As for EXOC5 C111 (UniProt O00471), the figure is inactive: 0.164; as for PFAS C318 (UniProt O15067), inactive: -0.245. In the case of EIF3D C437 (UniProt O15371) it was inactive: 0.411; in that of IRS4 C257 (UniProt O14654), inactive: -0.00739. In the case of UniProt O15042_C320 it was inactive: 0.115; in that of EIF3D C19 (UniProt O15371), inactive: 0.00387; in that of EXOC5 C675 (UniProt O00471), inactive: 0.257.

Regarding ARPC3 C162 (UniProt O15145), the “log2 ratio” value is inactive: 0.0386. As for UniProt O14965_C290, the figure is inactive: 0.257.

Regarding DNM1L C361 (UniProt O00429), the “log2 ratio” value was inactive: 0.0314.
